Measurements: patent US20060177442A1 (Bristol-Myers Squibb, published 2006)
Results are given in words; binding and its absence hold for the method and conditions named. Some results given as binding are weak or reduced against the parent protein; the word gives no strength.

By UniProt entry, the sequences of proteins in these tests, tags left out. Residues count along the entry.
UniProt P28908, residues 19-595: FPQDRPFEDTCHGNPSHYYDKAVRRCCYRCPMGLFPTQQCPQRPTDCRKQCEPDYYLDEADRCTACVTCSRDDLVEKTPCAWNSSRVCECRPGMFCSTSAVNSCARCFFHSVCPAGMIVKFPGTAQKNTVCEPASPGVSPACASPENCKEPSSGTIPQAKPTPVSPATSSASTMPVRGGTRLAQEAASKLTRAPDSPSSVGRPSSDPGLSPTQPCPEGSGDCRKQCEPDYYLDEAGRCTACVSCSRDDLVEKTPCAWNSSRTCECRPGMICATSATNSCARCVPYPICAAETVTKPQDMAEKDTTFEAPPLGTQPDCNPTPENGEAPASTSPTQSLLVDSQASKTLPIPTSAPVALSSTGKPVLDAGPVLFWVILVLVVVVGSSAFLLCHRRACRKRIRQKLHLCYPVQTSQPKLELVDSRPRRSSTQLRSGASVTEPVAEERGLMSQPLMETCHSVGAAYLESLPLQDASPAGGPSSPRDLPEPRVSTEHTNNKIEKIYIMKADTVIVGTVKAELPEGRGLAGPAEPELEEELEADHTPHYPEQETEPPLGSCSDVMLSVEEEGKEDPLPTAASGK

Target: CD30 on Hodgkin-derived cell lines (L540, L428) (human) (UniProt P28908)
Experiment: fluorescence microscopy of L540 cells stained with 5F11 and FITC-labeled goat anti-human antibody, combined with a TUNEL assay

binding: binds
B1: fully human anti-CD30 monoclonal antibody 5F11 (antibody, V domains shown)
VH: QVQLQQWGAGLLKPSETLSLTCAVYGGSFSAYYWSWIRQPPGKGLEWIGDINHGGGTNYNPSLKSRVTISVDTSKNQFSLKLNSVTAADTAVYYCASLTAYWGQGSLVTVSS
VL: DIQMTQSPTSLSASVGDRVTITCRASQGISSWLTWYQQKPEKAPKSLIYAASSLQSGVPSRFSGSGSGTDFTLTISSLQPEDFATYYCQQYDSYPITFGQGTRLEIK
